The text below walks through data of the supplement of paper PMC10338343.

In this assay the test system is EfPiwi piRISC loaded with L1MC piRNA (26 nt). Nature of the assay: pre-steady-state target cleavage rate (min^-1); guide: L1MC piRNA 5'p-UAACUAAAUACUAUGCAAGCUGUAGG; MIWI and MILI are mouse PIWI proteins and EfPiwi is from a freshwater sponge; tags in brackets are library labels; higher = faster piRNA-guided slicing of the target. The gist of the method: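 Cleave-'n-Seq measured uncleaved targets by sequencing after a transcribed, DNA-blocked target RNA library […] was mixed with 1 nM active affinity-purified piRISC holding one synthetic guide, with or without 500 nM GTSF1 partner protein, at 33 °C in HEPES–potassium acetate buffer for 0–8 or 0–960 min. Counts were normalised to depth and to weakly complementary targets, three trials were pooled, and k3 was capped at 0.0001 min^-1. A burst-and-steady-state fit gave the pre-steady-state cleavage rate.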

Where [1] appears, read: auxiliary factor: 500 nM Ephydatia muelleri Gtsf1.
The mark [2] stands for this setting: auxiliary factor: none (no Gtsf1).

± gives the standard deviation. The list shows a part of the results. Many of these values have a large error. Some results are limits rather than exact numbers.

For UCCUGGAACAGCUUGCAAAGUAUUUAGUAA, the “pre-steady-state target cleavage rate” value came out at 0.00293 ± 0.0022 under setting [1] and 0.000691 ± 0.0098 under setting [2].

UCCUCCUACACCUUGCAAAGUAUUUAGUUA: the “pre-steady-state target cleavage rate” value under setting [1] was found to be 0.0172 ± 0.007 and the “pre-steady-state target cleavage rate” value under setting [2] was 0.000798 ± 0.0072.

For UCCUGGUAGUGCUUGCAUAGUAUUUAGUUA, the “pre-steady-state target cleavage rate” value came to 0.0152 ± 0.0047 under setting [1] and 0.00155 ± 0.0076 under setting [2].

UCCUGGAUGAGCGUGCAUAGUAUUUAGUUA: the “pre-steady-state target cleavage rate” value under setting [1] was found to be 0.0239 ± 0.0062 and the “pre-steady-state target cleavage rate” value under setting [2] was 0.00176 ± 0.0078.

For UCCUGGAAGAGCUUGCAUAGUAAUUAGUUA, the “pre-steady-state target cleavage rate” value under setting [1] was found to be 0.00806 ± 0.0027 and the “pre-steady-state target cleavage rate” value under setting [2] amounted to 0.00195 ± 0.0076.

For the sequence UCCUGGAUGUGCUUGCAUAGUAAUUUAGUUA, the “pre-steady-state target cleavage rate” value reads like this: under setting [1], 0.00055 ± 0.015; under setting [2], 0.00434 ± 0.0045.

Turning to UCCUGCUACUGCUUGCAUAGUUUUUAGUUA, the “pre-steady-state target cleavage rate” value was found to be 0.00399 ± 0.0017 under setting [1] and 0.000563 ± 0.011 under setting [2].

For the sequence UCCUGGAUGUGCUUGCAUAGUAUUUAAGUUA, the “pre-steady-state target cleavage rate” value came to 0.0404 ± 0.015 under setting [1] and 0.000956 ± 0.02 under setting [2].

As for UCCUGGAACAGCUUGCAUAGUGUUUAGUUA, the “pre-steady-state target cleavage rate” value runs as follows: under setting [1], 0.0084 ± 0.0024; under setting [2], 0.000668 ± 0.011.

Consider UCCUGGAUGAGGUUGCUUAGUAUUUAGUUA, for which the “pre-steady-state target cleavage rate” value is 0.00088 ± 0.0075 under setting [1] and 0.000585 ± 0.018 under setting [2].

In the case of UCCUGGAACAGCUAGCAUAGUAUUUAGUUA, the “pre-steady-state target cleavage rate” value under setting [1] came to 0.015 ± 0.0041 and the “pre-steady-state target cleavage rate” value under setting [2] came out at 0.00128 ± 0.0056.

Regarding UCCUCCUACAGCUUGCAUAGUGAUUUAGUUA, the “pre-steady-state target cleavage rate” value is, setting by setting: under setting [1], 0.00415 ± 0.0025; under setting [2], 0.000784 ± 0.0071.

As to UCCUGGAUGUCCUUGCAUAGUAUUUACGUUA, the “pre-steady-state target cleavage rate” value was found to be 0.00179 ± 0.0034 under setting [1] and 0.000563 ± 0.011 under setting [2].

As for UCCUGGUUCAGGUUGCAUAGUAUUUAGUUA, the “pre-steady-state target cleavage rate” value was 0.0166 ± 0.0047 under setting [1] and 0.00417 ± 0.0055 under setting [2].

For UCCUGGAUCAGCAUGCAUUGUAUUUAGUUA, the “pre-steady-state target cleavage rate” value amounted to 0.00421 ± 0.0021 under setting [1] and 0.00039 ± 0.018 under setting [2].

Take UCCUGCUACAGCUUGCAUAGUAUUCUAGUUA: the “pre-steady-state target cleavage rate” value by setting is: under setting [1], 0.0043 ± 0.002; under setting [2], 0.000619 ± 0.011.

With UCCUGGAUGUCGAUGCAUUGUAUAUAGUUA, the “pre-steady-state target cleavage rate” value stood at 0.000203 ± 0.019 under setting [1] and 0.000305 ± 0.025 under setting [2].

On to UCCUGGAUCAGCUUGCCUAGUAUUUAGUUA, for which the “pre-steady-state target cleavage rate” value is, setting by setting: under setting [1], 0.0512 ± 0.011; under setting [2], 0.00091 ± 0.012.

As for UCCUGGAUGAGCUUGCAUAGUAGUUUAGUUA, the “pre-steady-state target cleavage rate” value came to 0.00964 ± 0.0035 under setting [1] and 0.0124 ± 0.0079 under setting [2].

On to UCCUGCUACAGCUAGCAUAGUAUUUAGUAA, for which the “pre-steady-state target cleavage rate” value under setting [1] was found to be 0.00623 ± 0.002 and the “pre-steady-state target cleavage rate” value under setting [2] worked out at 0.000619 ± 0.011.

In the case of UCCUGCUACAGCUUGCAUAGUAUUUAGCUA, the “pre-steady-state target cleavage rate” value under setting [1] worked out at 0.00339 ± 0.0014 and the “pre-steady-state target cleavage rate” value under setting [2] is less than 0.0001.

For UCCUGGAUCAGCAUGCAUAGUAUUAAGUUA, the “pre-steady-state target cleavage rate” value reads like this: under setting [1], 0.00392 ± 0.002; under setting [2], 0.0034 ± 0.005.

In the case of UCCUGGAUCAGCUUGCUUACUAUUUAGUUA, the “pre-steady-state target cleavage rate” value by setting is: under setting [1], 0.0032 ± 0.0024; under setting [2], 0.000359 ± 0.016.

With UCCUGGAUCAGCUUGCAUUGUAUAUAGUUA, the “pre-steady-state target cleavage rate” value under setting [1] was determined as 0.000484 ± 0.011 and the “pre-steady-state target cleavage rate” value under setting [2] is less than 0.0001.

As to UCCUGGUACUGCUUGCUUAGUAUUUAGUUA, the “pre-steady-state target cleavage rate” value by setting is: under setting [1], 0.00909 ± 0.0033; under setting [2], 0.000482 ± 0.025.

Take UCCUGCUACAGCUUGCAUUGUAAUUAGUUA: the “pre-steady-state target cleavage rate” value worked out at 0.00519 ± 0.0025 under setting [1] and 0.000814 ± 0.0068 under setting [2].

Regarding UCCUGGAACAGCUUGCAUAGUAUUAUAGUUA, the “pre-steady-state target cleavage rate” value is 0.0399 ± 0.015 under setting [1] and 0.000613 ± 0.023 under setting [2].

With UCCUGGAUCAGCUUGCAUAGUUUUUUGUUA, the “pre-steady-state target cleavage rate” value was found to be 0.00148 ± 0.0026 under setting [1] and 0.000207 ± 0.019 under setting [2].

Take UCCUGCUACAGCUUCCUUAGUAUUUAGUUA: the “pre-steady-state target cleavage rate” value is, setting by setting: under setting [1], 0.00425 ± 0.0019; under setting [2], 0.000438 ± 0.013.

For the sequence “UCCUGGAUGUCGAUGCAUAGUAUUUAGUUG [g2:g17:cont:t1G]”, the “pre-steady-state target cleavage rate” value is 0.00159 ± 0.0046 under setting [1] and 0.000141 ± 0.059 under setting [2].

As for UCCUGGAACAGCUUGCAUAGUUAUUUAGUUA, the “pre-steady-state target cleavage rate” value under setting [1] was 0.00185 ± 0.0026 and the “pre-steady-state target cleavage rate” value under setting [2] was found to be 0.00148 ± 0.0076.

UCCUGGAACAGCGUGCAUAGUAUUUAGUUA: the “pre-steady-state target cleavage rate” value runs as follows: under setting [1], 0.0168 ± 0.005; under setting [2], 0.000654 ± 0.011.

In the case of UCCUGGUAGAGCUUGCAUAGUAUAUAGUUA, the “pre-steady-state target cleavage rate” value under setting [1] turned out to be 0.0131 ± 0.0051 and the “pre-steady-state target cleavage rate” value under setting [2] came to 0.00192 ± 0.0065.

As to UCCUGGAUGUGCAUGCAUAGUAUUUACUUA, the “pre-steady-state target cleavage rate” value by setting is: under setting [1], 0.000588 ± 0.0091; under setting [2], less than 0.0001.

Consider UCCUGGAUGUGCUUCGCAUAGUAUUUAGUUA, for which the “pre-steady-state target cleavage rate” value is 0.0132 ± 0.0048 under setting [1] and 0.00142 ± 0.0067 under setting [2].

Consider UCCUGGAAGAGCUUGCAUACUAUUUAGUUA, for which the “pre-steady-state target cleavage rate” value under setting [1] amounted to 0.00438 ± 0.0026 and the “pre-steady-state target cleavage rate” value under setting [2] was 0.00581 ± 0.0041.

With UCCUGCUACAGCUUGCAUUGUAUAUAGUUA, the “pre-steady-state target cleavage rate” value is 0.00254 ± 0.0032 under setting [1] and 0.000414 ± 0.014 under setting [2].

Consider UCCUGGUACAGCUGCAUAGUAUUUAGUUA, for which the “pre-steady-state target cleavage rate” value by setting is: under setting [1], 0.00843 ± 0.0034; under setting [2], 0.000524 ± 0.016.

For UCCUGGUACAGCAUGCAUUGUAUUUAGUUA, the “pre-steady-state target cleavage rate” value turned out to be 0.00628 ± 0.0022 under setting [1] and 0.00113 ± 0.0087 under setting [2].

In the case of UCCUGGAUGAGCUUCCAUAGUAAUUAGUUA, the “pre-steady-state target cleavage rate” value reads like this: under setting [1], 0.0016 ± 0.0049; under setting [2], 0.000401 ± 0.021.

For the sequence UCCUGGUACAGCUUGCAAAGUAAUUAGUUA, the “pre-steady-state target cleavage rate” value was determined as 0.00305 ± 0.0021 under setting [1] and 0.000961 ± 0.0085 under setting [2].

Turning to UCCUGCUAGAGCUUGCAUAGUAUUAAGUUA, the “pre-steady-state target cleavage rate” value was 0.00624 ± 0.0022 under setting [1] and 0.000702 ± 0.0084 under setting [2].

Regarding UCCUGGAUCAGCUUGCAUAGUAUUUAUGUUA, the “pre-steady-state target cleavage rate” value by setting is: under setting [1], 0.0559 ± 0.02; under setting [2], 0.00163 ± 0.0083.

Consider UCCUGGAACAGCUUGCAUAGUAUUUAGUCUA, for which the “pre-steady-state target cleavage rate” value runs as follows: under setting [1], 0.00195 ± 0.0029; under setting [2], 0.000424 ± 0.018.

Consider UCCUGGAACACCUUGGAUAGUAUUUAGUUA, for which the “pre-steady-state target cleavage rate” value amounted to 0.00205 ± 0.0028 under setting [1] and 0.000333 ± 0.023 under setting [2].

As to UCCUGGAACAGCUUGCAUAGUAUUAUCAAA, the “pre-steady-state target cleavage rate” value was found to be 0.000895 ± 0.005 under setting [1] and 0.000342 ± 0.021 under setting [2].

Consider UCCUGGAUGAGCUUGCAUAGUAAUUAGAUA, for which the “pre-steady-state target cleavage rate” value under setting [1] is 0.00341 ± 0.0028 and the “pre-steady-state target cleavage rate” value under setting [2] was found to be 0.000614 ± 0.01.

Take UCCUGGAUCAGCAUGCUUAGUAUUUAGUUA: the “pre-steady-state target cleavage rate” value is 0.0112 ± 0.0042 under setting [1] and 0.00113 ± 0.0078 under setting [2].

As for UCCUGGAUCAGCUUGCAAAGUAUUUUGUUA, the “pre-steady-state target cleavage rate” value under setting [1] is 0.0012 ± 0.0034 and the “pre-steady-state target cleavage rate” value under setting [2] amounted to 0.000697 ± 0.013.

As to “UCCUGGAUGUCGUUGCAUAGUAUUUAGUUA [g2:g18:cont:t1A]”, the “pre-steady-state target cleavage rate” value is 0.00621 ± 0.0026 under setting [1] and 0.00103 ± 0.0074 under setting [2].

For UCCUGGAUGAGCUUGCAUAGUCUUUAGUUA, the “pre-steady-state target cleavage rate” value reads like this: under setting [1], 0.0107 ± 0.0033; under setting [2], 0.0128 ± 0.0056.

Take UCCUGGUAGAGCUAGCAUAGUAUUUAGUUA: the “pre-steady-state target cleavage rate” value reads like this: under setting [1], 0.00968 ± 0.0033; under setting [2], 0.00173 ± 0.0067.

As to UCCUCCUACAGCUUGCAUUGUAAUUAGUUA, the “pre-steady-state target cleavage rate” value runs as follows: under setting [1], 0.00753 ± 0.0034; under setting [2], 0.00129 ± 0.006.

Regarding UCCUGGAUGAGCUAGCUUAGUAUUUAGUUA, the “pre-steady-state target cleavage rate” value by setting is: under setting [1], 0.00129 ± 0.003; under setting [2], 0.0008 ± 0.0083.
